This assay has as its target activated factor XI (FXIa) (UniProt P03951). As to the kind of experiment: inferred from inhibition of FXIa chromogenic activity (S2366).

Chains of the proteins cited; added tags and fusions are not shown. Residues count along the entry.
UniProt P03951, residues 19-625: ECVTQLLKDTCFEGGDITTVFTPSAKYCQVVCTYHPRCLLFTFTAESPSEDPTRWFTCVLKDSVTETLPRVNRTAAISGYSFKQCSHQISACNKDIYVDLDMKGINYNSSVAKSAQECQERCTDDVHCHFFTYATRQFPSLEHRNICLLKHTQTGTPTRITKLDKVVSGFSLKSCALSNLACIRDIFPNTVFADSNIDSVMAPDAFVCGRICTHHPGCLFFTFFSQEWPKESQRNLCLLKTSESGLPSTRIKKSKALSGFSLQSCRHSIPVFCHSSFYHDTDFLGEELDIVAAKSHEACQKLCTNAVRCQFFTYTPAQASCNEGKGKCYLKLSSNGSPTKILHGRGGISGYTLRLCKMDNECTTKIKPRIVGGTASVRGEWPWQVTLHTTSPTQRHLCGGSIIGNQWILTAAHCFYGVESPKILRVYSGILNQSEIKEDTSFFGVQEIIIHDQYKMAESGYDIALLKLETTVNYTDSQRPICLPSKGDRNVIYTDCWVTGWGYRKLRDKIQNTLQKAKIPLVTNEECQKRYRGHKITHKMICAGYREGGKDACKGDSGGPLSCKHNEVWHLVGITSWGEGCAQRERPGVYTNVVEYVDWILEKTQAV

These are yes or no findings as the source states them, for the method shown. Some binding calls cover weakened binding; strength is not graded here.

B1: mouse mAb anti-FXI 34.2 (antibody, V domains shown)
VH: QVQLQQPGSELVRPGASVKLSCKASGYTFTRYWMHWVKQRHGQGLEWIGNIYPDSDSTNYDEKFRTKATLTADTSSSTAYMHLSSLTSEDSAVYYCTRMGFYAMDYWGQGTSVTVSS
VL: NIVMTQSPKSMSMSVGERVTLSCKASENVVTYVSWFQHKPEQSPKLLIYGASNRYTGVPDRFTGSGSATDFTLTISSVQAEDLADYHCGQSYSYPLTFGAGTKLELKR
notes: Mouse IgG purified from hybridoma supernatant by protein G
In the case of B1, the binding entry is reported as “binds”.

These data come from patent US20190106509A1 (PROTHIX B V, published 2019).
